Reference: paper PMC5959871, “Bacterial encapsulins as orthogonal compartments for mammalian cell engineering” (Nature Communications, 2018)
Results are given in words; binding and its absence hold for the method and conditions named. For some assays here: Binding seen in cells or lysates may run through a third protein. Some binding calls cover weakened binding; strength is not graded here. For some assays here: Tags and fused reporters may be left off the sequences shown.

Experiments:
[1] = biological target: Secreted StrepTagII-modified encapsulin shell protein A with N-terminal human BM40 secretory signal peptide (Myxococcus xanthus) (UniProt Q1D6H4); test: native gel or EMSA; Coomassie-stained Blue Native PAGE of cell culture supernatant of HEK293T cells
[2] = biological target: MxEncA^FLAG, encapsulin shell protein A from Myxococcus xanthus with C-terminal FLAG tag (Myxococcus xanthus) (UniProt Q1D6H4); test: co-IP; HEK293T lysates (M-PER) of co-expressing cells (transient or stable clone) on anti-FLAG M2 beads, four washes, elution with FLAG peptide; silver-stained SDS-PAGE, western blot against FLAG or Myc
[3] = biological target: MxEncA^STII, StrepTagII-labeled encapsulin shell protein A, from the bicistronic construct ^MycC-IntP2A-A^STII (Myxococcus xanthus) (UniProt Q1D6H4); test: pull-down; lysate (Buffer W, freeze-thaw) of HEK293T expressing ^MycC-IntP2A-A^STII on Strep-Tactin XT, elution with biotin; silver-stained SDS-PAGE

binding [1] | binding [2] | binding [3] | Molecule
binds |  |  | Secreted StrepTagII-modified encapsulin shell protein A with N-terminal human BM40 secretory signal peptide (from UniProt Q1D6H4 1-287)
 | binds | binds | Encapsulin cargo protein C, non-tagged, from the multi-gene construct BCDP2A (natural protein, Myxococcus xanthus, UniProt Q1D3Y8 1-130, looked up, MxEncC, ferritin-like native cargo protein of Myxococcus xanthus encapsulin, expressed from a single reading frame with B and D separated by P2A peptides; P2A skipping probably leaves residues of the P2A peptide on the proteins; also called MxEncC; EncC) MPQTNPFHSLVPRKMTDTELARSIRLNIEAELDAINLYAAHIDATDNEDAKAILQHVMDEEREHAALFWELIARLDPEQAAHAKEAVEKYRLITSGASHEAVEAVGKEGAAPSPADVTPEKRLTVGSLRR
 | binds |  | Encapsulin cargo protein D, non-tagged, from the multi-gene construct BCDP2A (natural protein, Myxococcus xanthus, UniProt Q1D9P3 1-109, looked up, MxEncD, native cargo protein of Myxococcus xanthus encapsulin, expressed from a single reading frame with B and C separated by P2A peptides; P2A skipping probably leaves residues of the P2A peptide on the proteins; also called MxEncD; EncD) MAKNSNPSAFDRDFGYLMPFLDRVAAAASDLEDASARAELTRLMVEEKARWQRIQELLGGAGGRGAAAPTPAREAPAEAPRLARGSADELHEAAPFATGLTVGSLRGSR
 | binds |  | Encapsulin cargo protein B, non-tagged, from the multi-gene construct BCDP2A (natural protein, Myxococcus xanthus, UniProt Q1D6H3 1-158, looked up, MxEncB, ferritin-like native cargo protein of Myxococcus xanthus encapsulin, expressed from a single reading frame with C and D separated by P2A peptides; P2A skipping probably leaves residues of the P2A peptide on the proteins; also called MxEncB; EncB) MAGPPDSDLDDVARIRLVLARELETINEYEAYARASSNPEVRAFFQHLAAEEKEHVSEAVHMLRMLDSGQNDHFAKPFVPGHFQAAEAPAPATVHVPTPDGPAFSVNGRNGRLPSEPPTSLPPQRLLYGLPAPPPAVESHPLTVGSLRRGGGGSGSGR
